Reference: PubChem BioAssay AID493246 (Drosophila RNAi Screening Center, 2011)
The screen tested about 21,000 reagents; this is a random part of those that have a named target and a result. Over the whole deposit, 429 (2%) got an active call. 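Values are raw and not normalised between plates; calls rest on per-plate z-scores that were not deposited.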 Names joined by + are all predicted targets of the reagent. Not given: the amount of reagent, the time to read-out.

Test: 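Identify essential fly genes by loss of cell viability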 (primary screen)
Cell system: Drosophila Kc and S2R+ cells
Knock-down reagent: long dsRNA against Drosophila genes
Read-out: 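Raw, unnormalised count of remaining cells in each well; per-plate z-scores of cell number underlie the calls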
Scale: Kc cell number and S2R+ cell number: higher = more cells remaining
Call rule: 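Active when the per-plate z-score of cell number is 3 or more in the direction of fewer cells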

| gene knocked down | dsRNA | Kc cell number, rep 1 | Kc cell number, rep 2 | S2R+ cell number, rep 1 | S2R+ cell number, rep 2 | call |
| --- | --- | --- | --- | --- | --- | --- |
| Jhbp14 (Juvenile hormone binding protein 14) | DRSC01988 | 1.69e6 | 1.74e6 | 1.38e6 | 1.58e6 | inactive |
| Ssrp (Structure specific recognition protein) | DRSC04658 | 1.33e6 | 1.47e6 | 6.98e5 | 7.60e5 | inactive |
| tum (tumbleweed) | DRSC07575 | 1.66e6 | 1.67e6 | 1.19e6 | 1.40e6 | inactive |
| CG5050 | DRSC02807 | 1.63e6 | 1.63e6 | 1.36e6 | 1.50e6 | inactive |
| AstA-R2 (Allatostatin A receptor 2) | DRSC14171 | 1.45e6 | 1.46e6 | 9.88e5 | 1.07e6 | inactive |
| mldr (mulder) | DRSC18100 | 1.56e6 | 1.50e6 | 1.06e6 | 1.15e6 | inactive |
| CG1532 | DRSC20516 | 1.48e6 | 1.53e6 | 1.00e6 | 1.12e6 | inactive |
| Mst84Dd (Male-specific RNA 84Dd) | DRSC12600 | 1.58e6 | 1.75e6 | 1.24e6 | 1.30e6 | inactive |
| CG15253 | DRSC01871 | 1.80e6 | 1.99e6 | 1.25e6 | 1.46e6 | inactive |
| Osi20 (Osiris 20) | DRSC12568 | 1.55e6 | 1.70e6 | 1.24e6 | 1.35e6 | inactive |
| CG6209 | DRSC06968 | 1.51e6 | 1.52e6 | 1.27e6 | 1.37e6 | inactive |
| gnu (giant nuclei) | DRSC10497 | 1.51e6 | 1.59e6 | 1.36e6 | 1.37e6 | inactive |
| CG17760 | DRSC06694 | 1.65e6 | 1.98e6 | 1.47e6 | 1.62e6 | inactive |
| CG34409 | DRSC14577 | 1.41e6 | 1.45e6 | 1.28e6 | 1.32e6 | inactive |
| CG9123 | DRSC20156 | 1.59e6 | 1.61e6 | 1.05e6 | 1.13e6 | inactive |
| CG15740 | DRSC19706 | 7.11e5 | 1.15e6 | 4.75e5 | 4.09e5 | active |
| CG11034 | DRSC02121 | 1.54e6 | 1.46e6 | 1.24e6 | 1.38e6 | inactive |
| CG11034 | DRSC02122 | 1.59e6 | 1.51e6 | 1.23e6 | 1.41e6 | inactive |
| pths (porthos) | DRSC03171 | 1.46e6 | 1.57e6 | 1.23e6 | 3.66e5 | inactive |
| CG30192 | DRSC03977 | 6.61e5 | – | 9.92e5 | – | inactive |
| CG34012 | DRSC09089 | 1.48e6 | 1.57e6 | 1.19e6 | 1.35e6 | inactive |
| Gyc32E (Guanylyl cyclase at 32E) | DRSC01154 | 1.56e6 | 1.51e6 | 1.11e6 | 1.45e6 | inactive |
| beat-IIIa (beaten path IIIa) | DRSC01575 | 1.47e6 | 1.47e6 | 9.16e5 | 1.08e6 | inactive |
| beat-IIIa (beaten path IIIa) | DRSC01577 | 1.53e6 | 1.59e6 | 9.50e5 | 1.17e6 | inactive |
| beat-IIIa (beaten path IIIa) | DRSC02178 | 1.62e6 | 1.65e6 | 1.32e6 | 1.44e6 | inactive |
| Elp6 (Elongator complex protein 6) | DRSC16571 | 1.62e6 | 1.61e6 | 1.24e6 | 1.32e6 | inactive |
| His3:CG33818 + His3:CG33857 + His3:CG33806 + 20 more | DRSC21267 | 7.38e5 | 8.40e5 | 3.40e5 | 4.49e5 | active |
| CG2656 | DRSC12584 | 1.61e6 | 1.65e6 | 1.36e6 | 1.47e6 | inactive |
| ArfGAP1 (ADP-ribosylation factor GTPase activating protein 1) | DRSC11173 | 1.56e6 | 1.56e6 | 1.37e6 | 1.43e6 | inactive |
| CG34210 | DRSC04579 | 1.60e6 | 1.61e6 | 1.23e6 | 1.35e6 | inactive |
| rpr (reaper) | DRSC11390 | 1.35e6 | 1.44e6 | 1.13e6 | 1.24e6 | inactive |
| Trmt61 (tRNA methyltransferase 61) | DRSC14888 | 1.56e6 | 1.69e6 | 1.05e6 | 1.22e6 | inactive |
| CG13226 | DRSC06346 | 1.51e6 | 1.44e6 | 1.15e6 | 1.30e6 | inactive |
| Ptip (PAX transcription activation domain interacting protein) | DRSC10660 | 1.73e6 | 1.76e6 | 1.13e6 | 1.34e6 | inactive |
| Ptip (PAX transcription activation domain interacting protein) | DRSC11048 | 1.71e6 | 1.62e6 | 8.95e5 | 1.06e6 | inactive |
| Ccdc85 | DRSC00501 | 1.24e6 | 1.15e6 | 7.52e5 | 8.67e5 | inactive |
| Sbp2 (SECIS-binding protein 2) | DRSC10766 | 1.34e6 | 1.37e6 | 1.24e6 | 1.15e6 | inactive |
| ctp (cut up) | DRSC18758 | 5.84e5 | – | 8.31e5 | – | inactive |
| Strn-Mlck (Stretchin-Mlck) | DRSC05032 | 1.34e6 | 1.40e6 | 1.19e6 | 1.21e6 | inactive |
| Strn-Mlck (Stretchin-Mlck) | DRSC05598 | 5.05e5 | – | 7.26e5 | – | inactive |
| Strn-Mlck (Stretchin-Mlck) | DRSC07471 | 1.56e6 | 1.64e6 | 1.17e6 | 1.33e6 | inactive |
| Rad23 | DRSC17167 | 4.92e5 | – | 8.15e5 | – | inactive |
| PKD (Protein Kinase D) | DRSC16200 | 1.32e6 | 1.29e6 | 1.09e6 | 1.18e6 | inactive |
| CG4716 | DRSC06884 | 1.40e6 | 1.48e6 | 1.17e6 | 1.18e6 | inactive |
| Fip1 (Factor interacting with poly(A) polymerase 1) | DRSC12147 | 1.60e6 | 1.55e6 | 1.21e6 | 1.25e6 | inactive |
| Mtr4 (Mtr4 helicase) | DRSC03560 | 1.23e6 | 1.31e6 | 1.18e6 | 1.20e6 | inactive |
| GstD5 (Glutathione S transferase D5) | DRSC16686 | 1.63e6 | 1.59e6 | 1.34e6 | 1.39e6 | inactive |
| CG13599 | DRSC14602 | 1.55e6 | 1.74e6 | 9.82e5 | 1.12e6 | inactive |
| CG34047 (retired record) | DRSC07857 | 1.39e6 | 1.34e6 | 1.01e6 | 1.12e6 | inactive |
| CG31229 | DRSC13309 | 1.29e6 | 1.32e6 | 8.66e5 | 9.40e5 | inactive |
| CG6497 | DRSC10654 | 1.46e6 | 1.71e6 | 1.36e6 | 1.61e6 | inactive |
| CG14915 | DRSC02399 | 1.53e6 | 1.60e6 | 1.16e6 | 1.29e6 | inactive |
| CG9372 | DRSC11068 | 1.35e6 | 1.34e6 | 1.16e6 | 1.30e6 | inactive |
| Xport-A + Xport-B | DRSC15586 | 1.52e6 | 1.62e6 | 1.18e6 | 1.21e6 | inactive |
| CG3687 | DRSC06850 | 1.54e6 | 1.55e6 | 1.12e6 | 1.22e6 | inactive |
| Vps13B (Vacuolar protein sorting 13B) | DRSC15060 | 1.77e6 | 1.80e6 | 1.09e6 | 1.26e6 | inactive |
| Naprt (Nicotinate phosphoribosyltransferase) | DRSC00630 | 1.34e6 | 1.37e6 | 1.17e6 | 1.22e6 | inactive |
| Hus1-like | DRSC12353 | 1.39e6 | 1.36e6 | 1.41e6 | 1.51e6 | inactive |
| dos | DRSC07992 | 1.05e6 | 9.47e5 | 8.24e5 | 9.64e5 | active |
| dos | DRSC08713 | 1.40e6 | 1.26e6 | 1.06e6 | 1.29e6 | inactive |

Individual results from the list.
Result of tum (tumbleweed) [DRSC07575] under “call”: inactive
Under “call”, Gyc32E (Guanylyl cyclase at 32E) [DRSC01154] reads inactive
Under “call”, CG9372 [DRSC11068] is entered as inactive
